According to patent US8138211B2, “Isothiazolyloxyphenylamidines and their use as fungicides” (Bayer Cropscience AG, priority 2009, dated 2012):
Some results were stated once for a whole list of compounds, not compound by compound. At least one structure is not confirmed: it was looked up by name or label, or the drawing left a doubt.

Assays:
Type in all cases: in vivo
Sphaerotheca fuliginea = assay: Sphaerotheca test (cucumber)/protective; conditions: active compound concentration of 500 ppm, protective, evaluation 7 days after inoculation
Puccinia recondita = assay: Puccinia test (wheat)/protective; conditions: active compound concentration of 500 ppm, protective, evaluation 7-9 days after inoculation
Botrytis cinerea = assay: Botrytis test (bean)/protective; conditions: active compound concentration of 250 ppm, protective, evaluation two days after inoculation
Uromyces appendiculatus = assay: Uromyces test (bean)/protective; conditions: active compound concentration of 10 ppm, protective, evaluation 10 days after inoculation
Leptosphaeria nodorum = Leptosphaeria nodorum test (wheat)/protective; conditions: active compound concentration of 500 ppm, protective, evaluation 8 days after inoculation
Septoria tritici = Septoria tritici test (wheat)/protective; conditions: active compound concentration of 500 ppm, protective, evaluation 21 days after inoculation
Pyrenophora teres = Pyrenophora teres test (barley)/protective; conditions: active compound concentration of 500 ppm, protective, evaluation 8 days after inoculation
Phakopsora pachyrhizi = assay: Phakopsora test (soya beans)/protective; conditions: active compound concentration of 100 ppm, protective, evaluation 11 days after inoculation

| Structure (SMILES) | efficacy (Sphaerotheca fuliginea) | efficacy (Puccinia recondita) | efficacy (Botrytis cinerea) | efficacy (Uromyces appendiculatus) | efficacy (Leptosphaeria nodorum) | efficacy (Septoria tritici) | efficacy (Pyrenophora teres) | efficacy (Phakopsora pachyrhizi) |
| --- | --- | --- | --- | --- | --- | --- | --- | --- |
| CCN(C)/C=N/c1cc(C)c(Oc2snc(Cc3ccc(Cl)cc3)c2C#N)cc1C [No. 27, N′-(4-{[3-(4-chlorobenzyl)-4-cyano-1,2-thiazol-5-yl]oxy}-2,5-dimethylphenyl)-N-ethyl-N-methylimidoformamide] | ≥ 70% | ≥ 70% | ≥ 70% | ≥ 70% | ≥ 70% | ≥ 70% | ≥ 70% | ≥ 80% |
| CCN(C)/C=N/c1cc(C)c(Oc2cc(-c3ccccc3)ns2)cc1C [No. 43, N′-{2,5-dimethyl-4-[(3-phenyl-1,2-thiazol-5-yl)oxy]phenyl}-N-ethyl-N-methylimidoformamide] | ≥ 70% | ≥ 70% | ≥ 70% | ≥ 70% | ≥ 70% | ≥ 70% | ≥ 70% | ≥ 80% |
| CCN(C)/C=N/c1cc(C)c(Oc2snc(-c3ccccc3)c2Cl)cc1C [No. 48, N′-{4-[(4-chloro-3-phenyl-1,2-thiazol-5-yl)oxy]-2,5-dimethylphenyl}-N-ethyl-N-methylimidoformamide] | – | ≥ 70% | ≥ 70% | ≥ 70% | ≥ 70% | ≥ 70% | ≥ 70% | ≥ 80% |
| CCc1nsc(Oc2cc(C)c(N=CN(C)CC)cc2C)c1C#N [compound 1] | ≥ 70% | ≥ 70% | – | ≥ 70% | ≥ 70% | ≥ 70% | ≥ 70% | ≥ 80% |
| CCCN(C)C=Nc1cc(C)c(Oc2snc(CC)c2C#N)cc1C [compound 3] | ≥ 70% | ≥ 70% | – | ≥ 70% | – | – | ≥ 70% | ≥ 80% |
| C=CCN(C)C=Nc1cc(C)c(Oc2snc(C(C)(C)C)c2C#N)cc1C [compound 5] | ≥ 70% | ≥ 70% | ≥ 70% | ≥ 70% | ≥ 70% | ≥ 70% | ≥ 70% | ≥ 80% |
| CCN(C)C=Nc1cc(C)c(Oc2snc(C(C)(C)C)c2C#N)cc1Cl [compound 10] | ≥ 70% | ≥ 70% | ≥ 70% | ≥ 70% | ≥ 70% | ≥ 70% | ≥ 70% | ≥ 80% |
| CCN(C)C=Nc1cc(Cl)c(Oc2snc(-c3ccccc3)c2C#N)cc1C [compound 12] | ≥ 70% | ≥ 70% | ≥ 70% | ≥ 70% | – | ≥ 70% | ≥ 70% | ≥ 80% |
| CCCN(C)C=Nc1cc(Cl)c(Oc2snc(-c3ccccc3)c2C#N)cc1C [compound 13] | ≥ 70% | ≥ 70% | ≥ 70% | ≥ 70% | – | – | – | ≥ 80% |
| Cc1cc(Oc2snc(-c3ccccc3)c2C#N)c(C)cc1N=CN(C)C [compound 14] | ≥ 70% | ≥ 70% | ≥ 70% | ≥ 70% | – | ≥ 70% | ≥ 70% | ≥ 80% |
| CCN(C)C=Nc1cc(C)c(Oc2snc(-c3ccccc3)c2C#N)cc1C [compound 15] | ≥ 70% | ≥ 70% | ≥ 70% | ≥ 70% | – | ≥ 70% | ≥ 70% | ≥ 80% |
| CCCN(C)C=Nc1cc(C)c(Oc2snc(-c3ccccc3)c2C#N)cc1C [compound 16] | ≥ 70% | ≥ 70% | ≥ 70% | ≥ 70% | – | ≥ 70% | ≥ 70% | ≥ 80% |
| Cc1cc(N=CN(C)C)c(Cl)cc1Oc1snc(-c2ccccc2)c1C#N [compound 17] | ≥ 70% | ≥ 70% | ≥ 70% | ≥ 70% | – | – | – | ≥ 80% |
| CCN(C)C=Nc1cc(C)c(Oc2snc(-c3ccccc3)c2C#N)cc1Cl [compound 18] | ≥ 70% | ≥ 70% | – | ≥ 70% | – | ≥ 70% | ≥ 70% | ≥ 80% |
| CCCN(C)C=Nc1cc(C)c(Oc2snc(-c3ccccc3)c2C#N)cc1Cl [compound 19] | ≥ 70% | ≥ 70% | – | ≥ 70% | – | – | – | ≥ 80% |
| CCN(C)C=Nc1cc(C)c(Oc2snc(-c3ccc(Cl)cc3)c2C#N)cc1C [compound 22] | ≥ 70% | ≥ 70% | ≥ 70% | ≥ 70% | ≥ 70% | ≥ 70% | ≥ 70% | ≥ 80% |
| Cc1cccc(-c2nsc(Oc3cc(C)c(N=CN(C)C)cc3C)c2C#N)c1 [compound 24] | ≥ 70% | ≥ 70% | ≥ 70% | ≥ 70% | – | ≥ 70% | – | ≥ 80% |
| Cc1cc(Oc2snc(-c3ccc(F)cc3)c2C#N)c(C)cc1N=CN(C)C [compound 31] | ≥ 70% | ≥ 70% | ≥ 70% | ≥ 70% | – | ≥ 70% | – | ≥ 80% |
| CCN(C)C=Nc1cc(C)c(Oc2snc(-c3ccc(F)cc3)c2C#N)cc1C [compound 32] | ≥ 70% | ≥ 70% | ≥ 70% | ≥ 70% | ≥ 70% | ≥ 70% | ≥ 70% | ≥ 80% |
| CCCN(C)C=Nc1cc(C)c(Oc2snc(-c3ccc(F)cc3)c2C#N)cc1C [compound 33] | ≥ 70% | ≥ 70% | ≥ 70% | ≥ 70% | – | – | – | ≥ 80% |
| CCN(C)C=Nc1cc(C)c(Oc2snc3ccccc23)cc1C [compound 59] | ≥ 70% | ≥ 70% | – | ≥ 70% | ≥ 70% | ≥ 70% | ≥ 70% | ≥ 80% |
| CCN(C)C=Nc1cc(C)c(Oc2snc(Cc3ccccc3)c2C#N)cc1C [compound 182] | ≥ 70% | ≥ 70% | ≥ 70% | ≥ 70% | ≥ 70% | ≥ 70% | ≥ 70% | – |
| CCN(C)C=Nc1cc(C)c(Oc2snc(C(C)C)c2C#N)cc1C [compound 221] | ≥ 70% | ≥ 70% | ≥ 70% | ≥ 70% | ≥ 70% | ≥ 70% | ≥ 70% | – |
| CCN(C)C=Nc1cc(C)c(Oc2snc(-c3ccccc3OC)c2C#N)cc1C [compound 246] | ≥ 70% | ≥ 70% | ≥ 70% | ≥ 70% | ≥ 70% | ≥ 70% | ≥ 70% | – |
